# Test results taken from patent US20230265432A1, “METHODS AND COMPOSITIONS FOR TREATING ACUTE MYELOID LEUKEMIA” (Sanford Burnham Prebys Medical Discovery Institute, priority 2021, published 2023).
# The chains behind the UniProt entries cited, without tags or fusion partners. Where a name states a change or a piece, a line headed by the entry shows the natural chain unless it says otherwise. A line that says so, or that is headed by a name, gives the form on record, which may keep a tag or linker. Residues count along the entry.
# UniProt Q09028: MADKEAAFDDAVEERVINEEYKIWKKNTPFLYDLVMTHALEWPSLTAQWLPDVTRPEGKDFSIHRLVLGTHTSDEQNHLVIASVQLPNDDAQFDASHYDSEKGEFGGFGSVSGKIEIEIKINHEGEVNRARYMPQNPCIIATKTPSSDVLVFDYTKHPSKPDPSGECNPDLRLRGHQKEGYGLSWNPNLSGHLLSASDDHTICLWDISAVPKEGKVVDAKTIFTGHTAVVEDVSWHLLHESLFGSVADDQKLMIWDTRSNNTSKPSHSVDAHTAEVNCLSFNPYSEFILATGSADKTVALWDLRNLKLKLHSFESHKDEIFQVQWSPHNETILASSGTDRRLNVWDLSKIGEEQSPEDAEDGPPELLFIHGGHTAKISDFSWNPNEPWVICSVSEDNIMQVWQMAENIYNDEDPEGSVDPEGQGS
# endogenous retinoblastoma binding protein 4 (RBBP4): residues 2-425 of Q09028
# UniProt Q99942: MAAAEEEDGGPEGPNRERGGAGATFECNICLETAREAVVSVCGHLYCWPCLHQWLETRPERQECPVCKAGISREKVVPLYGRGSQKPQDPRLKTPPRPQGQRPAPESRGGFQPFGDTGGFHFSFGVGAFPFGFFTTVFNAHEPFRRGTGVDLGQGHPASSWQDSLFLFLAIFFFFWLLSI
# Flag-tagged RNF5 catalytically inactive RING domain mutant (RM) (Q99942, form named): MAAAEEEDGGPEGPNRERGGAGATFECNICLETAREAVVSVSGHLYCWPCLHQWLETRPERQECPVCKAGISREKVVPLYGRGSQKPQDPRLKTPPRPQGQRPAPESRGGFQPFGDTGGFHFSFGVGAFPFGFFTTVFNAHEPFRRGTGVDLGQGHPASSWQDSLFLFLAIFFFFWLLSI
# No constants are given. Whether binding was seen depends on the method and setting. In cells and extracts the contact can be indirect. Some results given as binding are weak or reduced against the parent protein; the word gives no strength.
# What was measured:
# [1] = target: endogenous retinoblastoma binding protein 4 (RBBP4) (human) (UniProt Q09028); test: co-immunoprecipitation (IP: Flag) and Western blot for endogenous RBBP4, HEK293T, MG132
# [2] = target: endogenous retinoblastoma binding protein 4 (RBBP4) (human) (UniProt Q09028); test: anti-Flag immunoprecipitation of Flag-RNF5-expressing versus control MOLM-13 cells, LC-MS/MS
# [3] = target: endogenous retinoblastoma binding protein 4 (RBBP4) (human) (UniProt Q09028); test: anti-Flag immunoprecipitation from MOLM-13 cells with inducible Flag-tagged RNF5, LC-MS/MS (FIG. 5F)
# [4] = target: endogenous retinoblastoma binding protein 4 (RBBP4) (human) (UniProt Q09028); test: co-immunoprecipitation, HEK293T cells expressing Flag-tagged RNF5 constructs, Western blot (FIG. 6B)
# [5] = target: endogenous retinoblastoma binding protein 4 (RBBP4) (human) (UniProt Q09028); test: co-immunoprecipitation, MOLM-13 cells with doxycycline-inducible Flag-tagged RNF5, Western blot (FIG. 6D)
# [6] = target: endogenous retinoblastoma binding protein 4 (RBBP4) (human) (UniProt Q09028); test: co-immunoprecipitation (IP: Flag) and Western blot for endogenous RBBP4, MOLM-13 with doxycycline-inducible Flag-RNF5, MG132
# [7] = target: Flag-tagged full-length RNF5 (WT) (UniProt Q99942); test: co-immunoprecipitation (IP: Myc) and Western blot for Flag, HEK293T, MG132
# [8] = target: Flag-tagged full-length RNF5 (WT) (UniProt Q99942); test: reciprocal co-immunoprecipitation, HEK293T cells co-expressing Myc-RBBP4 and Flag-tagged RNF5-WT, Western blot (FIG. 6C)
binding [1],binding [2],binding [3],binding [4],binding [5],binding [6],binding [7],binding [8],Substance
binds,binds,binds,binds,binds,binds,–,–,Flag-tagged full-length RNF5 (WT) (from UniProt Q99942 1-180) (enzyme)
binds,–,–,binds,–,–,–,–,Flag-tagged RNF5 catalytically inactive RING domain mutant (RM) (from UniProt Q99942 1-180) (enzyme)
–,–,–,–,–,–,binds,binds,Myc-tagged RBBP4 (from UniProt Q09028 1-425)
